Data as given in PubChem BioAssay AID504791 (Drosophila RNAi Screening Center, 2011)
Screen: 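Genes of the fly required for silencing by miRNA, siRNA or endo-siRNA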 (primary screen). System: Drosophila S2-derived reporter cells. Reagent: long dsRNA against Drosophila genes, about 150-250 ng dsRNA per well (siRNA assay); about 80-120 ng (miRNA assay). Timing: about 5 days (siRNA assay); about 4 days (miRNA assay). Challenge: copper sulfate induction of reporters: 25 µM (siRNA assay); 200 mM stated (miRNA assay), 1-2 days before reading. Measured: 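Per-well ratio of Renilla over firefly light, expressed relative to that plate's average ratio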. Units: stable assay Renilla, run 1 in luminescence; stable assay firefly, run 1 in luminescence. Call rule: 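First-pass picks had plate-scaled ratios over 1.5 for the siRNA assay, over 1.6 for the miRNA assay, or under 0.6; two distinct dsRNAs had to score alike on retest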.
The screen tested about 23,000 reagents; shown is an unselected part of those with a known target gene and a result. In the full data, 199 (0.86%) got an active call. 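Plate-scaled ratios behind the calls are not deposited; printed light signals are raw; many rows marked increased or decreased are still called inactive.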 The numbers tell different reagents against one gene apart. The record does not give: the direction of the score.

{"target gene": "7B2", "reagent": 1, "stable siRNA reporter change": "reporter ratio raised past the hit cutoff", "stable assay Renilla, run 1": 9079, "stable assay firefly, run 1": 2.88e5, "activity call": "inactive"}
{"target gene": "tHMG1 (testis-enriched HMG-box-containing protein 1)", "reagent": 1, "stable assay Renilla, run 1": 9362, "stable assay firefly, run 1": 5.40e5, "activity call": "inactive"}
{"target gene": "CG33259", "reagent": 1, "stable assay Renilla, run 1": 7000, "stable assay firefly, run 1": 4.13e5, "activity call": "inactive"}
{"target gene": "CG18418", "reagent": 1, "stable assay Renilla, run 1": 7198, "stable assay firefly, run 1": 3.72e5, "activity call": "inactive"}
{"target gene": "Dfd (Deformed)", "reagent": 1, "stable assay Renilla, run 1": 6539, "stable assay firefly, run 1": 3.79e5, "activity call": "inactive"}
{"target gene": "Jon99Ci (Jonah 99Ci)", "reagent": 1, "stable assay Renilla, run 1": 7294, "stable assay firefly, run 1": 3.70e5, "activity call": "inactive"}
{"target gene": "Fitm (Fat storage inducing transmembrane protein)", "reagent": 1, "stable assay Renilla, run 1": 7115, "stable assay firefly, run 1": 3.84e5, "activity call": "inactive"}
{"target gene": "tst (twister)", "reagent": 1, "stable assay Renilla, run 1": 8690, "stable assay firefly, run 1": 3.74e5, "activity call": "inactive"}
{"target gene": "ctrip (circadian trip)", "reagent": 1, "stable assay Renilla, run 1": 7854, "stable assay firefly, run 1": 3.49e5, "activity call": "inactive"}
{"target gene": "ctrip (circadian trip)", "reagent": 2, "stable assay Renilla, run 1": 8642, "stable assay firefly, run 1": 5.23e5, "activity call": "inactive"}
{"target gene": "ctrip (circadian trip)", "reagent": 3, "stable assay Renilla, run 1": 4163, "stable assay firefly, run 1": 3.70e5, "activity call": "inactive"}

4 of these entries, reformatted.
{"target gene":"CG33259","reagent":1,"stable assay Renilla, run 1":7000,"stable assay firefly, run 1":4.13e5,"activity call":"inactive"}
{"target gene":"CG18418","reagent":1,"stable assay Renilla, run 1":7198,"stable assay firefly, run 1":3.72e5,"activity call":"inactive"}
{"target gene":"Dfd (Deformed)","reagent":1,"stable assay Renilla, run 1":6539,"stable assay firefly, run 1":3.79e5,"activity call":"inactive"}
{"target gene":"Jon99Ci (Jonah 99Ci)","reagent":1,"stable assay Renilla, run 1":7294,"stable assay firefly, run 1":3.70e5,"activity call":"inactive"}

Next reagents follow:
{"target gene": "CG2972", "reagent": 1, "stable assay Renilla, run 1": 8638, "stable assay firefly, run 1": 5.56e5, "activity call": "inactive"}
{"target gene": "CG6108 (retired record)", "reagent": 1, "stable assay Renilla, run 1": 7182, "stable assay firefly, run 1": 5.49e5, "activity call": "inactive"}
{"target gene": "CG12842 (retired record)", "reagent": 1, "stable assay Renilla, run 1": 6363, "stable assay firefly, run 1": 3.36e5, "activity call": "inactive"}
{"target gene": "alpha-Spec (alpha Spectrin)", "reagent": 1, "stable assay Renilla, run 1": 7962, "stable assay firefly, run 1": 3.10e5, "activity call": "inactive"}
{"target gene": "FoxK (Forkhead box K)", "reagent": 1, "stable assay Renilla, run 1": 6623, "stable assay firefly, run 1": 4.23e5, "activity call": "inactive"}
{"target gene": "FoxK (Forkhead box K)", "reagent": 2, "miRNA reporter change": "reporter ratio lowered past the hit cutoff", "activity call": "inactive"}
{"target gene": "dikar", "reagent": 1, "stable assay Renilla, run 1": 7746, "stable assay firefly, run 1": 4.02e5, "activity call": "inactive"}
{"target gene": "dikar", "reagent": 2, "stable assay Renilla, run 1": 8402, "stable assay firefly, run 1": 5.49e5, "activity call": "inactive"}
{"target gene": "CG7646", "reagent": 1, "stable assay Renilla, run 1": 6359, "stable assay firefly, run 1": 3.64e5, "activity call": "inactive"}
{"target gene": "CG9682", "reagent": 1, "stable assay Renilla, run 1": 6706, "stable assay firefly, run 1": 3.63e5, "activity call": "inactive"}
{"target gene": "CG2121", "reagent": 1, "stable assay Renilla, run 1": 8742, "stable assay firefly, run 1": 4.10e5, "activity call": "inactive"}
{"target gene": "CG2121", "reagent": 2, "stable assay Renilla, run 1": 6311, "stable assay firefly, run 1": 3.54e5, "activity call": "inactive"}
{"target gene": "Ppt1 (Palmitoyl-protein thioesterase 1)", "reagent": 1, "stable assay Renilla, run 1": 6007, "stable assay firefly, run 1": 3.34e5, "activity call": "inactive"}
{"target gene": "Grip91 (Gamma-tubulin ring protein 91)", "reagent": 1, "stable assay Renilla, run 1": 9851, "stable assay firefly, run 1": 6.68e5, "activity call": "inactive"}
{"target gene": "CG33631", "reagent": 1, "stable assay Renilla, run 1": 5248, "stable assay firefly, run 1": 3.29e5, "activity call": "inactive"}
{"target gene": "Gr59a (Gustatory receptor 59a)", "reagent": 1, "stable assay Renilla, run 1": 9787, "stable assay firefly, run 1": 4.86e5, "activity call": "inactive"}
{"target gene": "CG30345", "reagent": 1, "stable assay Renilla, run 1": 4755, "stable assay firefly, run 1": 3.89e5, "activity call": "inactive"}
